The list does not hold the whole screen: it gathers tests that were run many times, whatever their T/C, doses with no T/C, and many T/C values between a quarter and a half above the control. Further doses and runs are listed elsewhere. T/C is the treated group as % of the vehicle group. Schedule codes are those of the source, read here as Q, the interval in days (D) or hours (H), X, the number of doses. Some values lie below zero, which means that the treated tumours became smaller. Some entries were tested several times; their values stand side by side, smallest first. Some T/C values carry the count of animals alive at the toxicity check (mostly the fifth day); without a count, all were alive then. Some entries give survivors of the animals treated and no T/C: the source files T/C as zero there, which appears to mark a toxic dose or a test without result, not a measured value. Survivors were counted at the toxicity check, usually on the fifth day, unless a day is given; later deaths do not show.

The assay has as its system MX-1 breast xenograft, nude mice, tumor weight T/C. Nature of the assay: NCI In Vivo Anticancer Drug Screen. Data for tumor model Human Mammary Carcinoma MX-1 Xenograft (intrarenal inoculation) in NU/NU Swiss (nude) mice. The conditions noted are these: T/C endpoint: mean tumor weight change, higher T/C = larger tumour; for T/C: evaluated on day 11. The gist of the method:
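Mice carrying the implanted tumor receive either test agent or vehicle. Tumor size or survival is then recorded for both groups. Results are stated as the treated-to-control quotient.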
In general terms: In xenograft studies the graft and the host belong to different species.

The mark [1] stands for this setting: dose: 300.0 mg/kg/injection, schedule: Q04DX003 (sc), vehicle: suspension in saline.
Setting [2] is: dose: 600.0 mg/kg/injection, schedule: Q04DX003 (sc), vehicle: suspension in saline.
Where [3] appears, read: dose: 50.0 mg/kg/injection, schedule: Q01DX010 (sc), vehicle: Klucel (hydroxypropylcellulose) (HPC).
Where [4] appears, read: dose: 200.0 mg/kg/injection, schedule: Q01DX010 (sc), vehicle: saline.

Consider `CC1Oc2cc3c(-c4c(O)cc(O)c5c(O)c6c(cc45)OC(C)C(C)C6=O)c(O)cc(O)c3c(O)c2C(=O)C1C` (centres undefined), for which the survivor count by setting is: (dose: 18.75 mg/kg/injection, schedule: Q04DX003 (ip), vehicle: suspension in saline) 0 of 6 on day 11; (dose: 37.5 mg/kg/injection, schedule: Q04DX003 (ip), vehicle: suspension in saline) 0 of 6 on day 11; (dose: 75.0 mg/kg/injection, schedule: Q04DX003 (ip), vehicle: suspension in saline) 0 of 6 on day 11.

Consider `O=C1OC(=O)[C@H]2[C@@H]1[C@H]1C=C[C@@H]2OC1=O`, for which, for the setting “dose: 75.0 mg/kg/injection, schedule: Q04DX003 (sc), vehicle: suspension in saline”, the survivor count is reported as 3 of 6 on day 11.

For `C[Si](C)(C)O/C=C1/CCOC1=O`, the T/C runs as follows: under setting [1], 133 % of control; under setting [2], 127 % of control.

For `OC(CCl)CN1CC[N+]2(CC1)CC[N+]1(CCN(CC(O)CCl)CC1)CC2` (centres undefined), the T/C (dose: 16.0 mg/kg/injection, schedule: Q01DX010 (sc), vehicle: water) was 129 % of control. The survivor count runs as follows: (dose: 853.3 mg/kg/injection, schedule: Q04DX003 (ip), vehicle: water) 0 of 3 on day 11; (dose: 853.3 mg/kg/injection, schedule: Q04DX003 (sc), vehicle: water) 1 of 3 on day 11; (dose: 1024.0 mg/kg/injection, schedule: Q01DX010 (sc), vehicle: water) 0 of 3 on day 11.

Take `O=C[C@@H](CO)O[C@H](C=O)c1c[nH]c(=O)[nH]c1=O`: the survivor count (dose: 150.0 mg/kg/injection, schedule: Q04DX003 (ip), vehicle: saline) is reported as 3 of 6 on day 11.

On to `S=c1nc[nH]c2nc[nH]c12`, for which the T/C (dose: 3.13 mg/kg/injection, schedule: Q01DX010 (sc), vehicle: Klucel (hydroxypropylcellulose) (HPC)) is 133 % of control [2 of 2 alive on day 11]. The survivor count runs as follows: (dose: 25.0 mg/kg/injection, schedule: Q01DX010 (sc), vehicle: Klucel (hydroxypropylcellulose) (HPC)) 0 of 3 on day 11 and 1 of 3 on day 11; under setting [3], 0 of 3 on day 11; (dose: 100.0 mg/kg/injection, schedule: Q01DX010 (sc), vehicle: Klucel (hydroxypropylcellulose) (HPC)) 0 of 2 on day 11.

As to `CC(C)CCCCCCCCCCCCC(=O)NCC(=O)NC1C(O)C(O)C(Nc2ncnc3nc[nH]c23)OC1C(O)CO` (centres undefined), the survivor count by setting is: (dose: 2.5 mg/kg/injection, schedule: Q01DX010 (sc), vehicle: saline) 1 of 3 on day 11; (dose: 3.2 mg/kg/injection, schedule: Q01DX010 (sc), vehicle: saline) 0 of 3 on day 11; (dose: 25.0 mg/kg/injection, schedule: Q01DX010 (sc), vehicle: saline) 0 of 3 on day 11; (dose: 50.0 mg/kg/injection, schedule: Q01DX010 (sc), vehicle: saline) 0 of 3 on day 11; (dose: 100.0 mg/kg/injection, schedule: Q01DX010 (sc), vehicle: saline) 0 of 3 on day 11; under setting [4], 0 of 2 on day 11.

On to `COC(=O)C(F)C(Br)C(=O)OC` (centres undefined), for which, where the note is “dose: 150.0 mg/kg/injection, schedule: Q04DX003 (sc), vehicle: saline with Tween-80”, the survivor count was 0 of 6 on day 11.

Regarding `CCC1(O)CC2CN(CCc3c([nH]c4ccccc34)C(C(=O)OC)(c3cc4c(cc3OC)N(C)C3C(O)(C(N)=O)C(O)C5(CC)C=CCN6CCC43C65)C2)C1` (centres undefined) (tested in a mixture with another compound), the survivor count is, setting by setting: (dose: 6.0 mg/kg/injection, schedule: Q04DX003 (sc), vehicle: water) 2 of 6 on day 11; (dose: 12.0 mg/kg/injection, schedule: Q04DX003 (sc), vehicle: water) 0 of 6 on day 11 and 1 of 6 on day 11; (dose: 24.0 mg/kg/injection, schedule: Q04DX003 (sc), vehicle: water) 0 of 6 on day 11.

On to `C(CC1CO1)C1CO1` (centres undefined), for which the T/C runs as follows: (dose: 75.0 mg/kg/injection, schedule: Q04DX003 (sc), vehicle: saline) -22, 15, 18, 20 % of control; (dose: 150.0 mg/kg/injection, schedule: Q04DX003 (sc), vehicle: saline) -100 [4 of 6 alive on day 11], -78, -61, 1 % of control [5 of 6 alive on day 11]. The survivor count reads like this: under setting [4], 0 of 3 on day 11 and 0 of 6 on day 11; (dose: 300.0 mg/kg/injection, schedule: Q04DX003 (sc), vehicle: saline) 0 of 6 on day 11; under setting [1], 0 of 6 on day 11; (dose: 600.0 mg/kg/injection, schedule: Q04DX003 (sc), vehicle: saline) 0 of 6 on day 11; under setting [2], 0 of 6 on day 11.

As for `OCC1OC(n2cnc3cncnc32)C(O)C1O` (centres undefined), the survivor count (dose: 100.0 mg/kg/injection, schedule: Q04DX003 (sc), vehicle: saline) is on record as 3 of 6 on day 11.

Turning to `O=NN(CCCl)C(=O)NC1[C@H](O)CCC[C@@H]1O` (some centres undefined), the survivor count was 1 of 5 on day 11 (dose: 20.0 mg/kg/injection, schedule: Q04DX003 (sc), vehicle: saline); 0 of 3 on day 11 and 0 of 6 on day 11 (dose: 40.0 mg/kg/injection, schedule: Q04DX003 (sc), vehicle: saline); 0 of 3 on day 11 and 0 of 6 on day 11 (dose: 80.0 mg/kg/injection, schedule: Q04DX003 (sc), vehicle: saline).

`COc1cccc2c1C(=O)c1c(O)c3c(c(O)c1C2=O)CC(O)(/C(C)=N/NC(=O)CCCCC(=O)N/N=C(\C)C1(O)Cc2c(O)c4c(c(O)c2C(OC2CC(N)C(O)C(C)O2)C1)C(=O)c1c(OC)cccc1C4=O)CC3OC1CC(N)C(O)C(C)O1` (centres undefined): for the setting “dose: 100.0 mg/kg/injection, schedule: Q04DX003 (sc), vehicle: water”, the survivor count was 0 of 6 on day 11.

For the molecule `CCNC(=O)[B-][N+](C)(C)C`, the survivor count (dose: 800.0 mg/kg/injection, schedule: Q04DX003 (sc), vehicle: Klucel (hydroxypropylcellulose) (HPC)) is reported as 0 of 6 on day 11.

Turning to `C[N+](C)(C)c1cc2c(nn1)Nc1ccccc1S2`, the T/C under setting [3] is 144 % of control. Besides, the survivor count (dose: 200.0 mg/kg/injection, schedule: Q01DX010 (sc), vehicle: Klucel (hydroxypropylcellulose) (HPC)) was 0 of 3 on day 11 and 0 of 6 on day 11.

As to `CC1(C)OC2C(COC(=O)c3ccc([N+](=O)[O-])cc3)OC(NC(=O)N(CCCl)N=O)C2O1` (centres undefined), the survivor count runs as follows: (dose: 1200.0 mg/kg/injection, schedule: Q04DX003 (sc), vehicle: saline with Tween-80) 0 of 6 on day 11 and 3 of 6 on day 11; (dose: 2400.0 mg/kg/injection, schedule: Q04DX003 (sc), vehicle: saline with Tween-80) 0 of 6 on day 11 and 1 of 6 on day 11.

Regarding `NCC1CCC(C(=O)O)CC1` (centres undefined), for the setting “dose: 300.0 mg/kg/injection, schedule: Q04DX003 (sc), vehicle: saline with Tween-80”, the T/C was 148 % of control.

As for `ClCCCN1CCCCC1CCl` (centres undefined), the survivor count runs as follows: (dose: 12.5 mg/kg/injection, schedule: Q04DX003 (sc), vehicle: saline) 3 of 6 on day 11; (dose: 25.0 mg/kg/injection, schedule: Q04DX003 (sc), vehicle: saline) 1 of 6 on day 11; (dose: 50.0 mg/kg/injection, schedule: Q04DX003 (sc), vehicle: saline) 0 of 6 on day 11.

Consider `O=C1NC(=O)C2C3C=CC(C12)C1C2C(=O)NC(=O)C2C31` (centres undefined), for which the survivor count by setting is: (dose: 1600.0 mg/kg/injection, schedule: Q04DX003 (sc), vehicle: saline with Tween-80) 1 of 6 on day 11; (dose: 3200.0 mg/kg/injection, schedule: Q04DX003 (sc), vehicle: saline with Tween-80) 1 of 6 on day 11.

Turning to `CN1CCN(Cc2nc3cccc4c3c([n+]2[O-])-c2ccccc2-4)CC1`, for the setting “dose: 25.0 mg/kg/injection, schedule: Q01DX010 (sc), vehicle: saline with Tween-80”, the survivor count is reported as 1 of 2 on day 11.

(Values after PubChem BioAssay AID296 (DTP/NCI, 2004).)
